Experiment [1] deals with HPV-11-containing tumor cells from the patient. The experiment can be described thus: Cell viability curves (CellTiter-Glo Luminescent Cell Viability Assay), patient's cultured tumor cells. Conditions: Homo sapiens, tumor cells treated 24 hours. It is filed as cell-based. On the procedure:
Normal and tumor cells were treated with Cidofovir, Vorinostat or DHA at indicated concentration for 24 hours. Cell viabilities were measured using CellTiter-Glo® Luminescent Cell Viability Assay (Promega)
There is no data in the literature, however, analyzing the effect of these inhibitors on cells containing low-risk HPVs, because there are no cell lines established that contain HPV-6 or HPV-11. […] More importantly, this cell line was used to evaluate the sensitivity to the above inhibitors and to compare it to the sensitivity of normal lung cells isolated from the same patient (FIG. 17).
Cidovovir is the most common drug used for treating RRP.

Experiment [2] deals with cervical cancer cells that express the high-risk HPVs. Conditions: previous studies; cited from earlier work.

Take `O=C(CCCCCCC(=O)Nc1ccccc1)NO` [SAHA]: a half-maximal response in experiment [1] (EC50) required 2 µM. In addition, in experiment [2], the “killing of cervical cancer cells” value is listed as “able to efficiently kill”.
